# Laboratory results published in PubChem BioAssay AID1259354 (Paczesny and Yang Labs, IUPUI and University of Michigan, 2018).
# Chains of the proteins cited; added tags and fusions are not shown. Lines headed by an entry give the natural chain unless they say otherwise; changes in a name come on top.
# UniProt Q01638: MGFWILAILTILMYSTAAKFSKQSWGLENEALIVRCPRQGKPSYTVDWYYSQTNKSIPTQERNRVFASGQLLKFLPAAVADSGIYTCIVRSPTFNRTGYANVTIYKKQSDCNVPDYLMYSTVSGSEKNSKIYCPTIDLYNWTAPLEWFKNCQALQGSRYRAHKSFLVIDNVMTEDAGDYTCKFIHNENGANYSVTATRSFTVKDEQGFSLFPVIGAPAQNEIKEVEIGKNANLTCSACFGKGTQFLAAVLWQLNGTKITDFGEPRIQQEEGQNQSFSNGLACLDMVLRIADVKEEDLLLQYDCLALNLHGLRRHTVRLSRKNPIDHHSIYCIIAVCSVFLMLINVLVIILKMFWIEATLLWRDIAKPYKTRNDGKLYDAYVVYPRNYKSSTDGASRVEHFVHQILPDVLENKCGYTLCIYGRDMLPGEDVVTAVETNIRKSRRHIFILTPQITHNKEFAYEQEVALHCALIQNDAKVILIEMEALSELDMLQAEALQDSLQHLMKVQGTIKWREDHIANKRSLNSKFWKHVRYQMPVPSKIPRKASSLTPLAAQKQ
# “And” between values parts separate entries of the source, which are not always exact repeats. Identical values can stand only once. Out of some 78,000 compounds screened, about 1,800 (2.3%) were called active. The inconclusive results got no clear call from the source; some entries with a clear call stand among them for comparison. Cut-off read from the data, not from the text of the source: active = inhibition above about 30%; inconclusive = mostly about 10% to 28%; inactive = weaker than that.
# Target: Interleukin-1 receptor-like 1 (Homo sapiens) (UniProt Q01638)
# Experiment: blocks human ST2 binding to IL-33, primary screen, biochemical, AlphaLISA (AID 1259354)
# Settings: AlphaLISA ST2-Fc/biotin-IL-33 interaction, 1 h; at 17 µM, stronger effect = higher value
row,Structure (SMILES),inhibition
1,COCC(=O)N[C@H]1CO[C@H]2[C@@H]1OC[C@@H]2Nc1nccc(-c2ccc(OC)cc2)n1,inconclusive: 26%
2,C=CCOc1ccc(C(O)=C2C(=O)C(=O)N(CCCn3ccnc3)C2c2cccs2)cc1 (stereo not given),inconclusive: 11%
3,CC(=O)Nc1ccc(OCC(=O)Nc2cc(Cl)cc(Cl)c2)cc1,inconclusive: 10%
4,COc1ccc([C@H]2Cc3cccc(O)c3C(=O)O2)cc1,inconclusive: 17%
5,CC1(C)C[C@H]2C[C@](C)(CN2C(=O)Nc2ccc3nsnc3c2)C1,inconclusive: 10%
6,O=[N+]([O-])c1ccc(/C=C/c2ccc(O)cc2)cc1,inconclusive: 28%
7,COc1ccc(N=Cc2c(O)c([N+](=O)[O-])cc3oc4c(c23)CCCC4)cc1,inactive
8,Nc1c(S(=O)(=O)O)cc(Nc2ccc(Nc3nc(Cl)nc(Nc4ccc(S(=O)(=O)O)cc4)n3)c(S(=O)(=O)O)c2)c2c1C(=O)c1ccccc1C2=O,active: 81%
9,CNC(=O)OC12CC3C[C@@](C)(C1)C[C@](C)(C3)C2,inactive
10,O=C(Nc1ccc2oc(-c3ccncc3)nc2c1)c1cccnc1,inactive
11,C=C(C)COc1ccccc1CN(C)C(C)c1ccccn1 (stereo not given),inconclusive: 10%
12,COc1cccc(-n2cc(CNC3CCN(S(C)(=O)=O)CC3)cn2)c1,inactive
13,CC(C)C(=O)Nc1ncc(Cc2cccc(Cl)c2Cl)s1,inactive
14,O=C(COc1ccccc1)NCc1nc2cccnc2n1Cc1ccc(F)cc1,inconclusive: 10%
15,COC(=O)c1ccccc1C(=O)N1CCCC(N2CCN(c3ccc(F)cc3)CC2)C1 (stereo not given),inconclusive: 22%
16,COc1ccc(OC)c(NS(=O)(=O)c2ccccc2)c1,inactive
17,O=C1NN(c2cccc(Br)c2)C(=O)/C1=C\c1ccco1,inconclusive: 20%
18,CCOc1ccc(C(=O)c2sc3nc(N)c(C#N)c(CC)c3c2N)cc1,inconclusive: 15%
19,O=[N+]([O-])c1cccc(-c2noc([C@@H]3C[C@@H](O)CN3Cc3ccccc3O)n2)c1,inconclusive: 18%
20,O=C1CCC(C(=O)N2CCC3(CCCN(CCCc4ccccc4)C3)C2)=NN1 (stereo not given),inconclusive: 19%
21,NS(=O)(=O)c1ccc(N2C(=O)C=CC2=O)cc1,inactive
22,COCCNC(=O)Cn1c(=O)n(CCCC(=O)NCc2ccco2)c(=O)c2sccc21,inconclusive: 11%
23,O=C(CN1C(=O)CCc2cc(S(=O)(=O)N3CCCCC3)ccc21)NC1CCCC1,inactive
24,COc1ccc(NC(=O)C2c3ccccc3C(=O)N3CCc4ccccc4C23)c(OC)c1 (stereo not given),inconclusive: 11%
25,CCC1(CC)C(=O)NC(=O)N=C1N,inactive
26,CC(C)C(NS(=O)(=O)c1cccs1)C(=O)NC1CCCC1 (stereo not given),inconclusive: 14%
27,Cc1occc1C(=O)N1CCC(C2CCN(c3ncccn3)CC2)C1 (stereo not given),inconclusive: 14%
28,COc1ccc(Cn2c(CNC(=O)Cc3cccc([N+](=O)[O-])c3)nc3cccnc32)cc1,inconclusive: 16%

row,Structure (SMILES),inhibition
1,CN(C)CC1(O)CCN(C(=O)C2CCN(C(=O)c3ccncc3)CC2)C1 (stereo not given),inconclusive: 13%
2,O=C(Nc1cccc(F)c1)N1C[C@@H]2C[C@H](C1)c1c(-c3ccc4ccccc4c3)ccc(=O)n1C2,inconclusive: 16%
3,O=C1NCc2ccc(S(=O)(=O)NCc3ccc(F)cc3)cc21,inconclusive: 11%
4,CC(C)(C)CN1CC(NC(=O)Cc2ccc(O)c(Cl)c2)CC1=O (stereo not given),inactive
5,C=CCc1cccc2cc(C(=O)Nc3cccc([N+](=O)[O-])c3)c(=O)oc12,inactive
6,NC(=O)CN1C(=O)CO[C@H]2CN(C3CCCCC3)C[C@H]21,inconclusive: 12%
7,CC(=O)O[C@@H](CO[C@@H]1O[C@H](CO)[C@H](O)[C@H](O)[C@H]1O)[C@]1(C)C=C2CC[C@@H]3C(C)(C)[C@@H](O)CC[C@@]3(C)[C@@H]2CC1,inconclusive: 12%
8,O=C(NC[C@H]1O[C@@H](CO)[C@@H](O)[C@H]1N1CCN(c2ccccn2)CC1)Nc1cccc(Cl)c1,inconclusive: 29%
9,Cc1ccc2nc(/C(C#N)=C/c3cc4c(cc3[N+](=O)[O-])OCO4)[nH]c2c1,inconclusive: 16%
10,O=C1Nc2ccccc2C(O)(C(=O)NCc2ccc3c(c2)OCO3)N1c1ccccc1 (stereo not given),active: 30%
11,NCC(=O)Nc1ccc(-c2cc3ccccc3o2)cc1F,inactive
12,O[C@@H]1C[C@@H](c2nc(-c3ccc(F)cc3)no2)N(Cc2ccc(Cl)cc2)C1,inconclusive: 24%
13,c1ccc(-c2nc3c(c(NCc4cn5ccsc5n4)n2)CCNC3)cc1,inconclusive: 21%
14,CC(C)(C)c1ccc(C(=O)Nc2nc3ccc(S(C)(=O)=O)cc3s2)cc1,inconclusive: 11%
15,Cc1ccc(N2C(=O)C(N3C(=O)c4cccc([N+](=O)[O-])c4C3=O)C2c2ccc(F)cc2)cc1F (stereo not given),inconclusive: 15%
16,Cc1ccc(Cn2cc(CCC(=O)O)c3ccccc32)cc1,inactive
17,O=C(Nc1ccc2c(c1)OC(F)(F)O2)c1ccccc1C1CCNC1 (stereo not given),inconclusive: 14%
18,COc1ccc(CN2C[C@H](O)C[C@H]2c2nc(-c3ccc(OC(F)(F)F)cc3)no2)c(OC)c1OC,inconclusive: 13%
19,COc1ccccc1N1CCN(C(=O)c2cc(-c3cccs3)on2)CC1,inactive
20,COc1ccc(-c2oc3ncn(Cc4ccco4)c(=N)c3c2-c2ccc(OC)cc2)cc1,active: 31% and inconclusive: 23%
21,Cc1ccc(CN2CCN(C(=O)c3csc(C)n3)CC2=O)cc1,inconclusive: 12%
22,Cc1cc(NC(=O)c2cc(-c3cccs3)on2)n(-c2ccccc2)n1,inconclusive: 20%
23,COc1cccc(Cn2c(CNS(=O)(=O)c3ccc(C)cc3)nc3cccnc32)c1,inconclusive: 17%
24,CN(C)c1ccc(C2c3ccccc3C=CN2C(=O)c2ccccc2)cc1 (stereo not given),inconclusive: 21%
25,Cc1cc(C)nc(SCC(=O)NC2CCCCC2)n1,inconclusive: 13%
26,Cn1c(=O)c2c(SCC(=O)N3CCCCC3)nc(-c3cccs3)nc2n(C)c1=O,inactive
27,O=C(NCc1ccc(Cl)cc1)C(=O)Nc1ccc([N+](=O)[O-])cc1,inactive
